# Inconclusive results, whose numbers are uncertain, are shown with a selection of clear calls. A potency beside an inconclusive call is a rough fit, not a confirmed value. Active and inactive are the calls of the source. The call rests on the fitted dose curve; in most records, active means well fitted cell-killing curve with a large enough effect; inconclusive means small, poorly fitted or top-dose-only effect, or effect the other way; inactive means no such curve, though single readings can be large or run the other way.
# How the values were obtained:
# [1] = Quantitative High-Throughput drug screen in 47 multiple myeloma cell lines against the NCATS MIPE library collection: FR4_PLB cell viability assay (AID 1918924; further: nearly all actives have a fitted effect of over 35% in size); conditions: FR4_PLB myeloma cells viability, CellTiter-Glo ATP, 48 h; viability (% of DMSO control): at 45.8 µM (top of the series)
# Outline: (§1)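 Inhibition of cell viability is measured here. Each line was plated at 500 cells per well, treated with MIPE 4.0 drugs, kept 48 hours at 37C, then assayed for ATP content by CellTiter-Glo luminescence.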
# [2] = Quantitative High-Throughput drug screen in 47 multiple myeloma cell lines against the NCATS MIPE library collection: EJM_DSMZ cell viability assay (AID 1918926; further: nearly all actives have a fitted effect of over 30% in size); conditions: EJM myeloma cell viability, CellTiter-Glo ATP, 48 h; viability, % of control: at 45.8 µM (top of the series)
# Outline: (§2)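 Myeloma cell lines, 500 cells per well, exposed to MIPE 4.0 library compounds for 48 h at 37C, 5% CO2. Viability from ATP by CellTiter-Glo luminescence; normalised to DMSO (100%) and media-only (0%) wells.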
# [3] = Quantitative High-Throughput drug screen in 47 multiple myeloma cell lines against the NCATS MIPE library collection: Karpas620_DSMZ cell viability assay (AID 1918959); further: nearly all actives have a fitted effect of over 30% in size
# Outline: as §1
# [4] = Quantitative High-Throughput drug screen in 47 multiple myeloma cell lines against the NCATS MIPE library collection: KMM1_JCRB cell viability assay (AID 1918960); conditions: KMM1 myeloma viability, CellTiter-Glo ATP luminescence, 48 h; viability (% of DMSO): at 45.8 µM (top of the series); further: nearly all actives have a fitted effect of over 30% in size;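 on viability (% of DMSO): 100% = DMSO-treated cells and 0% = medium-only wells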
# Outline: (§3)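 Luminescence from CellTiter-Glo, taken after 5 min at room temperature, reports cellular ATP as viability. Cells (500 per well) had been treated 48 h at 37 °C with MIPE 4.0 compounds, scaled between DMSO and medium-only controls.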
# [5] = Quantitative High-Throughput drug screen in 47 multiple myeloma cell lines against the NCATS MIPE library collection: Karpas417_ECACC cell viability assay (AID 1918961); conditions: Karpas417 myeloma viability, CellTiter-Glo ATP luminescence, 48 h; viability (% of DMSO): at 45.8 µM (top of the series) unless noted
# Outline: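 qHTS of the MIPE 4.0 collection: 500 myeloma cells/well, 48 h drug exposure at 37C in 5% CO2, then CellTiter-Glo for 5 min at room temperature before luminescence reading.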
# [6] = Quantitative High-Throughput drug screen in 47 multiple myeloma cell lines against the NCATS MIPE library collection: KHM11_PLB cell viability assay (AID 1918962); conditions: KHM11 myeloma cell viability, CellTiter-Glo ATP luminescence, 48 h; viability, % of DMSO control: at 45.8 µM (top of the series); further: nearly all actives have a fitted effect of over 35% in size
# Outline: as §1
# [7] = Quantitative High-Throughput drug screen in 47 multiple myeloma cell lines against the NCATS MIPE library collection: Delta47_JCRB cell viability assay (AID 1918925; further: nearly all actives have a fitted effect of over 45% in size); conditions: Delta47 myeloma viability, CellTiter-Glo ATP, 48 h; viability (% of DMSO): at 45.8 µM (top of the series) unless noted
# Outline: as §2
# [8] = Quantitative High-Throughput drug screen in 47 multiple myeloma cell lines against the NCATS MIPE library collection: AMO1_DSMZ cell viability assay (AID 1918927; further: nearly all actives have a fitted effect of over 30% in size)
# Outline: as §2
# [9] = Quantitative High-Throughput drug screen in 47 multiple myeloma cell lines against the NCATS MIPE library collection: ARD_JJKsccE7 cell viability assay (AID 1918929)
# Outline: as §2
# [10] = Quantitative High-Throughput drug screen in 47 multiple myeloma cell lines against the NCATS MIPE library collection: ARP1_JJKsccF8 cell viability assay (AID 1918928; further: nearly all actives have a fitted effect of over 40% in size); conditions: ARP1 myeloma cells viability, CellTiter-Glo ATP, 48 h; viability: at 45.8 µM (top of the series)
# Outline: as §3
# Potency means the concentration at half of the fitted maximal effect.
smiles,measurement,setting,value
C=C1C(=O)OC2C=C(C)CCC=C(C)CCC12 (stereo not drawn),Potency,[1],"inconclusive: 16.6 µM [cytotoxic, partial curve, poor fit]"
same,Potency,[2],"inconclusive: 23.5 µM [cytotoxic, partial curve]"
same,Potency,[3],active: 14.8 µM
same,Potency,[4],active: 16.6 µM
same,Potency,[5],"inconclusive: 20.9 µM [cytotoxic, partial curve, poor fit]"
same,Potency,[6],inactive
CC(C)C[C@H](NC(=O)[C@H](CCc1ccccc1)NC(=O)CN1CCOCC1)C(=O)N[C@@H](Cc1ccccc1)C(=O)N[C@@H](CC(C)C)C(=O)[C@@]1(C)CO1,Potency,[1],active: 0.0083 µM
same,Potency,[3],active: 0.001 µM
same,Potency,[6],active: 0.001 µM
CC(C)(OCc1nn(Cc2ccccc2)c2ccccc12)C(=O)O,Potency,[7],inactive
same,Potency,[2],active: 9.35 µM
same,Potency,[8],"inconclusive: 9.35 µM [cytotoxic, single point]"
same,Potency,[9],"inconclusive: 26.4 µM [cytotoxic, partial curve, poor fit]"
same,Potency,[5],"inconclusive: 1.05 µM [cytotoxic, full curve, poor fit]"
same,Potency,[6],"inconclusive: 0.935 µM [rising, full curve, poor fit]"
Cc1cc(C2CCCCC2)n(O)c(=O)c1,Potency,[1],active: 6.62 µM
same,Potency,[9],active: 9.35 µM
same,Potency,[5],active: 2.96 µM
N=C(N=C(N)N)N1CCOCC1,Potency,[7],inactive
same,Potency,[2],inactive
same,Potency,[8],inactive
same,Potency,[10],inactive
same,Potency,[9],inactive
same,Potency,[5],"inconclusive: 33.2 µM [rising, single point]"
same,Potency,[6],"inconclusive: 2.96 µM [cytotoxic, partial curve, poor fit]"
CC(C)n1c(C=C[C@H](O)C[C@H](O)CC(=O)O)c(-c2ccc(F)cc2)c2ccccc21,Potency,[1],"inconclusive: 20.9 µM [cytotoxic, partial curve]"
same,Potency,[10],"inconclusive: 14.8 µM [cytotoxic, partial curve]"
same,Potency,[3],"inconclusive: 23.5 µM [cytotoxic, single point]"
same,viability (% of DMSO),[5],inconclusive: 36.8% [cytotoxic]
same,Potency,[6],active: 14.8 µM
CC(C)(C)C(=O)Oc1ccc2c(c1)nc(NC(=O)c1cccc([N+](=O)[O-])c1)n2CCCO,Potency,[1],"inconclusive: 26.4 µM [cytotoxic, single point]"
same,Potency,[10],"inconclusive: 7.43 µM [cytotoxic, partial curve, poor fit]"
same,Potency,[9],inactive
same,Potency,[3],inactive
same,Potency,[5],inactive
same,Potency,[6],"inconclusive: 0.0469 µM [rising, full curve, poor fit]"
Nc1ncnc2c1nc(Cl)n2[C@@H]1O[C@H](CO)[C@@H](O)[C@@H]1O,Potency,[1],"inconclusive: 23.5 µM [cytotoxic, single point]"
same,Potency,[4],"inconclusive: 29.6 µM [cytotoxic, single point]"
same,viability (% of DMSO),[5],inconclusive: 50% [cytotoxic]
NCCCCCC(=O)O,Potency,[1],"inconclusive: 7.43 µM [rising, single point]"
same,Potency,[10],"inconclusive: 2.96 µM [cytotoxic, full curve, poor fit]"
same,Potency,[3],inactive
same,Potency,[4],inactive
same,Potency,[5],"inconclusive: 9.35 µM [rising, single point]"
same,Potency,[6],"inconclusive: 16.6 µM [cytotoxic, single point]"
CN1CCN(CCCN2c3ccccc3Sc3ccc(Cl)cc32)CC1,Potency,[1],active: 23.5 µM
same,Potency,[10],active: 20.9 µM
same,Potency,[5],active: 0.132 µM
same,Potency,[6],"inconclusive: 37.2 µM [cytotoxic, single point]"
C[C@H](NC(=O)Cc1cc(F)cc(F)c1)C(=O)N[C@H](C(=O)OC(C)(C)C)c1ccccc1,Potency,[7],inactive
same,Potency,[2],inactive
same,Potency,[8],inactive
same,Potency,[10],inactive
same,Potency,[5],"inconclusive: 6.62 µM [rising, partial curve, poor fit]"
same,Potency,[6],inactive
Nc1ccn([C@@H]2O[C@H](CO)[C@@H](O)[C@H]2O)c(=O)n1,Potency,[7],"inconclusive: 0.0047 µM [cytotoxic, full curve]"
same,Potency,[2],inactive
same,Potency,[8],"inconclusive: 6.62 µM [cytotoxic, partial curve]"
same,Potency,[10],"inconclusive: 0.0066 µM [cytotoxic, full curve, poor fit]"
same,Potency,[3],"inconclusive: 0.0023 µM [rising, full curve, poor fit]"
O=C1NC(=O)C(=Cc2cccc(C(F)(F)F)c2)S1,Potency,[7],"inconclusive: 20.9 µM [cytotoxic, partial curve, poor fit]"
same,Potency,[2],active: 20.9 µM
same,Potency,[8],"inconclusive: 23.5 µM [cytotoxic, partial curve]"
same,Potency,[10],"inconclusive: 1.66 µM [cytotoxic, partial curve, poor fit]"
same,Potency,[9],"inconclusive: 33.2 µM [cytotoxic, single point]"
same,Potency,[3],"inconclusive: 26.4 µM [cytotoxic, single point]"
same,Potency,[4],"inconclusive: 20.9 µM [cytotoxic, partial curve]"
same,Potency,[5],active: 26.4 µM
same,Potency,[6],"inconclusive: 2.64 µM [rising, partial curve, poor fit]"
O=c1cc(-c2cccc3c2Sc2ccccc2S3)oc(N2CCOCC2)c1,Potency,[7],active: 5.26 µM
same,Potency,[2],"inconclusive: 16.6 µM [cytotoxic, partial curve]"
same,Potency,[8],active: 16.6 µM
same,Potency,[10],"inconclusive: 26.4 µM [cytotoxic, single point]"
same,Potency,[9],"inconclusive: 33.2 µM [cytotoxic, single point]"
same,Potency,[4],"inconclusive: 14.8 µM [cytotoxic, partial curve]"
same,Potency,[5],"inconclusive: 5.9 µM [cytotoxic, partial curve, poor fit]"
same,Potency,[6],"inconclusive: 16.6 µM [cytotoxic, partial curve]"
CN1C2CCC1CC(OC(=O)C(CO)c1ccccc1)C2 (stereo not drawn),Potency,[7],inactive
same,Potency,[2],inactive
same,Potency,[8],inactive
same,Potency,[10],inactive
same,Potency,[4],inactive
same,Potency,[5],"inconclusive: 5.26 µM [rising, partial curve, poor fit]"
same,Potency,[6],inactive
CC(C)OC(=O)C(C(=O)OC(C)C)=C1SC=CS1,Potency,[7],inactive
same,Potency,[2],inactive
same,Potency,[8],inactive
same,Potency,[10],inactive
same,Potency,[9],"inconclusive: 4.69 µM [cytotoxic, partial curve, poor fit]"
same,Potency,[3],inactive
same,Potency,[4],"inconclusive: 0.0296 µM [rising, full curve, poor fit]"
same,Potency,[5],"inconclusive: 0.0047 µM [cytotoxic, full curve, poor fit]"
same,Potency,[6],"inconclusive: 11.8 µM [cytotoxic, full curve, poor fit]"
CC[C@H](NC(=O)[C@H](C)NC)C(=O)N1C[C@@H](O)C[C@H]1Cc1c(-c2[nH]c3cc(F)ccc3c2C[C@H]2C[C@H](O)CN2C(=O)[C@H](CC)NC(=O)[C@H](C)NC)[nH]c2cc(F)ccc12,Potency,[7],active: 16.6 µM
same,Potency,[2],"inconclusive: 0.662 µM [cytotoxic, full curve, poor fit]"
same,Potency,[8],active: 4.69 µM
same,Potency,[10],"inconclusive: 26.4 µM [cytotoxic, single point]"
same,Potency,[3],"inconclusive: 0.743 µM [cytotoxic, full curve]"
same,Potency,[4],active: 14.8 µM
same,Potency,[6],inactive
O=C(O)[C@H]1O[C@H](Oc2cc3oc(-c4ccccc4)cc(=O)c3c(O)c2O)[C@H](O)[C@@H](O)[C@H]1O,Potency,[7],"inconclusive: 0.0023 µM [rising, full curve, poor fit]"
same,Potency,[2],"inconclusive: 26.4 µM [cytotoxic, single point]"
same,Potency,[8],"inconclusive: 0.105 µM [cytotoxic, full curve, poor fit]"
same,viability,[10],inconclusive: 68.3% [cytotoxic]
same,Potency,[3],"inconclusive: 2.96 µM [cytotoxic, partial curve, poor fit]"
same,Potency,[4],"inconclusive: 0.118 µM [cytotoxic, full curve, poor fit]"
same,Potency,[5],"inconclusive: 23.5 µM [rising, partial curve, poor fit]"
COc1cc(NC(=O)c2ccc(-c3ccc(Cl)cc3)o2)cc(OC)c1,Potency,[1],inactive
same,Potency,[10],inactive
same,Potency,[9],"inconclusive: 11.8 µM [cytotoxic, partial curve, poor fit]"
same,Potency,[5],active: 2.96 µM
C[C@]12CC[C@@H]3c4ccc(O)cc4C[C@@H](CCCCCCCCCS(=O)CCCC(F)(F)C(F)(F)F)[C@H]3[C@H]1CC[C@H]2O (stereo partly drawn),Potency,[7],"inconclusive: 16.6 µM [cytotoxic, partial curve, poor fit]"
same,Potency,[2],"inconclusive: 1.48 µM [cytotoxic, partial curve, poor fit]"
same,Potency,[8],inactive
same,Potency,[9],inactive
same,Potency,[3],inactive
same,Potency,[5],"inconclusive: 0.0105 µM [cytotoxic, full curve, poor fit]"
same,Potency,[6],inactive
Nc1ncnc2ccccc12,Potency,[7],"inconclusive: 37.2 µM [cytotoxic, single point]"
same,Potency,[2],"inconclusive: 20.9 µM [cytotoxic, partial curve]"
same,Potency,[8],"inconclusive: 33.2 µM [cytotoxic, single point]"
same,Potency,[10],inactive
same,Potency,[6],"inconclusive: 3.72 µM [rising, partial curve, poor fit]"

# Already shown: an excerpt of the list.
smiles,measurement,setting,value
CC(C)(C)C(=O)Oc1ccc2c(c1)nc(NC(=O)c1cccc([N+](=O)[O-])c1)n2CCCO,Potency,[9],inactive
same,Potency,[3],inactive
same,Potency,[5],inactive
same,Potency,[6],"inconclusive: 0.0469 µM [rising, full curve, poor fit]"
Nc1ncnc2c1nc(Cl)n2[C@@H]1O[C@H](CO)[C@@H](O)[C@@H]1O,Potency,[1],"inconclusive: 23.5 µM [cytotoxic, single point]"
same,Potency,[4],"inconclusive: 29.6 µM [cytotoxic, single point]"
same,viability (% of DMSO),[5],inconclusive: 50% [cytotoxic]
NCCCCCC(=O)O,Potency,[1],"inconclusive: 7.43 µM [rising, single point]"
same,Potency,[10],"inconclusive: 2.96 µM [cytotoxic, full curve, poor fit]"
same,Potency,[3],inactive
same,Potency,[4],inactive
same,Potency,[5],"inconclusive: 9.35 µM [rising, single point]"
same,Potency,[6],"inconclusive: 16.6 µM [cytotoxic, single point]"
CN1CCN(CCCN2c3ccccc3Sc3ccc(Cl)cc32)CC1,Potency,[1],active: 23.5 µM
same,Potency,[10],active: 20.9 µM
same,Potency,[5],active: 0.132 µM
same,Potency,[6],"inconclusive: 37.2 µM [cytotoxic, single point]"
C[C@H](NC(=O)Cc1cc(F)cc(F)c1)C(=O)N[C@H](C(=O)OC(C)(C)C)c1ccccc1,Potency,[7],inactive
same,Potency,[2],inactive
same,Potency,[8],inactive
same,Potency,[10],inactive
same,Potency,[5],"inconclusive: 6.62 µM [rising, partial curve, poor fit]"
same,Potency,[6],inactive
Nc1ccn([C@@H]2O[C@H](CO)[C@@H](O)[C@H]2O)c(=O)n1,Potency,[7],"inconclusive: 0.0047 µM [cytotoxic, full curve]"

# Reference: PubChem BioAssay (NCATS)
